We go through one substance from publication PMC3958890.

By UniProt entry, the sequences of proteins in these tests, tags left out. Residues count along the entry.
UniProt P14211, residues 18-412: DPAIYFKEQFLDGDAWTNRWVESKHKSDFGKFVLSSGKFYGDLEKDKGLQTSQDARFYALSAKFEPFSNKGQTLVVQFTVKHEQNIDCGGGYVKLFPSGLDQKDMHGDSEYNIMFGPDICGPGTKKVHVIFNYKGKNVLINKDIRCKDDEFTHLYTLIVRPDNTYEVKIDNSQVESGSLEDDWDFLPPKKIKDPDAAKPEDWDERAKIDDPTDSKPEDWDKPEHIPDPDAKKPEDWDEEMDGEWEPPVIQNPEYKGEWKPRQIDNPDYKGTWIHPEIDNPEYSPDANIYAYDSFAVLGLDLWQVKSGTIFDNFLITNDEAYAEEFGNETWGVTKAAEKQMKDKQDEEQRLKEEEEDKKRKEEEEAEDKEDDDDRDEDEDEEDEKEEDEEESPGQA

No constants are given. Whether binding was seen depends on the method and setting. Some results given as binding are weak or reduced against the parent protein; the word gives no strength.

This assay has as its target recombinant calreticulin rCRT/18-412 (UniProt P14211). In words: SEC; Sephadex G-75 column 80 x 2 cm; 5 mL of rCRT at 10 mg/mL loaded; eluted with 0.9% NaCl at 20 mL/h; oligomers and monomers fractionated; both purified. (In general: In gel filtration, larger molecules generally elute earlier.)

As for “recombinant calreticulin rCRT/18-412 (from UniProt P14211 18-412) (domain or fragment)”, the binding entry is “binds”.
